{"source": "patent US10927170B2", "about": "“Anti-claudin 1 monoclonal antibodies for the prevention and treatment of hepatocellular carcinoma” (INSTITUT HOSPITALIER UNIVERSITAIRE DE STRASBOURG, priority 2015, dated 2021)", "system": "HCV Jc1-infected Huh7.5.1^dif cells", "assay": "186-gene HCC risk signature (nCounter, GSEA, nearest template prediction) in persistently HCV Jc1-infected Huh7.5.1^dif cells", "assay_type": "cell-based, human", "conditions": "DAA 1 nM DCV+1 μM SOF; interferon alpha-2a 10 IU/ml; erlotinib 0.1 μM; pioglitazone 1 μM; metformin 3 μM; mAb 1, 10 and 100 μg/ml", "experimental": "Huh7.5.1 cells have already been described (Zhong et al., Proc Natl Acad Sci USA, 2005, 102(26): 9294-9299). For proliferation arrest and differentiation (Huh7.5.1^dif cells), 2.5.10^4 to 3.10^4 Huh7.5.1 cells were cultured in Dulbecco's Modified Eagle Medium (DMEM) containing 1% dimethylsulfoxide (DMSO).\nCell culture-derived HCVcc Jc1 (genotype 2a/2a) (Pietschmann et al., Proc Natl Acad Sci USA, 2006, 103(19): 7408-7413) were generated in Huh7.5.1 cells as previously described (Wakita et al., Nat Med., 2005, 11(7): 791-796). HCVcc infectivity was determined by calculating the 50% tissue culture infectious doses (TCID50) in infection experiments as previously described (Lindenbach et al., Science, 2005, 309(5734): 623-626). HCV infection was assessed by qRT-PCR of intracellular HCV RNA (Xiao et al., Gut, 2015, 64(3): 483-494) as well as by immunostaining using an HCV E2-specific AP33 antibody as previously described (Krieger et al., Hepatology. 2010, 51(4): 1144-1157).\nLiver cells were lysed in TRI-reagent (Molecular Research Center), and RNA was purified using Direct-zol RNA MiniPrep (Zymo Research) according to the manufacturer's instructions. RNA quantity and quality were assessed using NanoDrop (ThermoScientific) and Bioanalyzer 2100 ([…]). Gene expression profiling was performed using 250-500 ng total RNA by using nCounter Digital Analyzer system (NanoString). […]", "note": "At least one compound was matched to its structure with a doubt left."}
{"compound": "CCc1ccc(CCOc2ccc(CC3SC(=O)NC3=O)cc2)nc1", "note": "(stereo not shown) [pioglitazone]", "values": [{"measurement": "Reversal of HCC high-risk genes as shown by GSEA (FIG. 2A)", "value": "partially reverses"}]}
